Reference: the supplement of paper PMC12067093, “Discovery and optimisation of a covalent ligand for TRIM25 and its application to targeted protein ubiquitination” (Chemical Science, 2025)
Some of the results follow.

Amino acid sequences for entries named in this document (tags omitted). A change or cut given only in a name is not applied to a line headed by its entry.
UniProt Q9Y697: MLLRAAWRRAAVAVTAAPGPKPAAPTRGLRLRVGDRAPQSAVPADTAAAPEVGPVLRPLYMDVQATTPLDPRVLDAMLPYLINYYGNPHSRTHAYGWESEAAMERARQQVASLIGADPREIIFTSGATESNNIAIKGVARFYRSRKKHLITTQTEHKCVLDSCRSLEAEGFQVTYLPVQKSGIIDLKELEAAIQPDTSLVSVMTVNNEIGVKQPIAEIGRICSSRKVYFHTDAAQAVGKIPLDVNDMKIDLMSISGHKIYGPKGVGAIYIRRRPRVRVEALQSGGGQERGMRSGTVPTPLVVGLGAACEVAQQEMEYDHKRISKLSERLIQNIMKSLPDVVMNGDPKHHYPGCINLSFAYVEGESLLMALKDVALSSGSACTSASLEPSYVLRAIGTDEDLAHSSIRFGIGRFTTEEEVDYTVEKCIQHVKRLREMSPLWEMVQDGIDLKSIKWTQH
UniProt Q86X76: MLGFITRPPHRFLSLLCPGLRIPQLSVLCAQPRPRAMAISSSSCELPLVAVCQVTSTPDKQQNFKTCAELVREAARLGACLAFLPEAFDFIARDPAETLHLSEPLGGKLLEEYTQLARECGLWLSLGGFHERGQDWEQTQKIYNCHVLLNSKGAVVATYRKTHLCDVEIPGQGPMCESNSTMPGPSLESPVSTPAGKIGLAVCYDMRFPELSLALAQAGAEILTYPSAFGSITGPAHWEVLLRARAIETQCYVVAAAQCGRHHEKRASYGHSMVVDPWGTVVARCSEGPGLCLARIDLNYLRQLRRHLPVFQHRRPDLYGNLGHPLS
UniProt P51970, whole entry, looked up: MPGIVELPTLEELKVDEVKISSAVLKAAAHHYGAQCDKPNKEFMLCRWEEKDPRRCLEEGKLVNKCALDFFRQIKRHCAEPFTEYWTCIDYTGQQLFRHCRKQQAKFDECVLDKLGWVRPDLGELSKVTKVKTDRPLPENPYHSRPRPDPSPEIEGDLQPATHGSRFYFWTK
UniProt Q9NX14, whole entry, looked up: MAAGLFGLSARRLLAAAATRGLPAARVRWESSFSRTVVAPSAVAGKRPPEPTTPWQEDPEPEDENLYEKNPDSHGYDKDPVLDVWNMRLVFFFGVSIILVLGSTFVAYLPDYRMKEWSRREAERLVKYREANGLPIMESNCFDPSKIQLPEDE
UniProt Q96IV0: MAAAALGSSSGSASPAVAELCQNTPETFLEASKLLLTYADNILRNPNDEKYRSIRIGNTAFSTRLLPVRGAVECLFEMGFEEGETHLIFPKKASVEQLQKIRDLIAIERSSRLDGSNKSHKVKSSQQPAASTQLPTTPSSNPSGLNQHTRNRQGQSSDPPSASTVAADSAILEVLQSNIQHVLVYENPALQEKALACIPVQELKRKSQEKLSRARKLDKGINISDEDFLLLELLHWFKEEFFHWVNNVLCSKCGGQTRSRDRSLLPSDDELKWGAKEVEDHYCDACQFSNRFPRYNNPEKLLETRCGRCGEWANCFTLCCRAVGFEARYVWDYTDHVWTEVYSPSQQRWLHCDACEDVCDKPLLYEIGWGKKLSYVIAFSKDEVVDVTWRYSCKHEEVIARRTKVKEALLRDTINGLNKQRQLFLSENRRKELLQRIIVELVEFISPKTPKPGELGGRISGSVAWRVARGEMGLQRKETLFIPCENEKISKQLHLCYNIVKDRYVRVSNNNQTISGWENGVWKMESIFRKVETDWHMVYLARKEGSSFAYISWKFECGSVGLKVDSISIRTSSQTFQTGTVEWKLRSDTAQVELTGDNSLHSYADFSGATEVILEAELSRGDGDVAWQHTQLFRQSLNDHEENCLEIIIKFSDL
UniProt Q16718, whole entry, looked up: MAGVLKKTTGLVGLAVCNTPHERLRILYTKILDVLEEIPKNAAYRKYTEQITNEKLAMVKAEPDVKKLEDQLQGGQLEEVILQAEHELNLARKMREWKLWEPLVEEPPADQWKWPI
UniProt Q8TD19: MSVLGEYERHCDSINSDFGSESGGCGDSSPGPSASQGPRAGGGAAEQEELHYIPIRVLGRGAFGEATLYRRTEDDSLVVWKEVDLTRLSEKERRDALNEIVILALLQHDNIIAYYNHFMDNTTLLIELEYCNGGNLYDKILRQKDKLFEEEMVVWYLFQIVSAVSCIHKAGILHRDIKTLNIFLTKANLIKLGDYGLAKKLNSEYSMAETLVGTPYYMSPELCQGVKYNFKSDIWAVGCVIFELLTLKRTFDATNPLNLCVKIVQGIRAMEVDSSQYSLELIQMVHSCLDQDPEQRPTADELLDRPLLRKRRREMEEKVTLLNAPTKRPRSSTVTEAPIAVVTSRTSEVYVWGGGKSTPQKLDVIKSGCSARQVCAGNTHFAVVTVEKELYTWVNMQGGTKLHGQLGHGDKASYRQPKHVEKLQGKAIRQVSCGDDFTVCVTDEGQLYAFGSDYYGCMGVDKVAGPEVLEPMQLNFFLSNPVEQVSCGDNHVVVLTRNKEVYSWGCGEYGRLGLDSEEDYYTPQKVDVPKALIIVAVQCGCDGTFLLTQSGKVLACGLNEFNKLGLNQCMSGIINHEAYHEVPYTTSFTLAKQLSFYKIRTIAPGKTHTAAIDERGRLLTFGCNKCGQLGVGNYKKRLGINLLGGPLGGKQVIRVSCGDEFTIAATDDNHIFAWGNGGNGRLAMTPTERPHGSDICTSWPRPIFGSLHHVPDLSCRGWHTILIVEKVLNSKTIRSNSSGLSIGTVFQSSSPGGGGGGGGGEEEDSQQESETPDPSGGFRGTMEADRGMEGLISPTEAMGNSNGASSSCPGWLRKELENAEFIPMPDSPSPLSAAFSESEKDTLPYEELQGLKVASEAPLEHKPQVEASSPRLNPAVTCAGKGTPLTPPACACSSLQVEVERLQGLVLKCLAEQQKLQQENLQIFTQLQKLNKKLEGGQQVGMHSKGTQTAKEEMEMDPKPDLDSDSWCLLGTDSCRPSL
UniProt O00221: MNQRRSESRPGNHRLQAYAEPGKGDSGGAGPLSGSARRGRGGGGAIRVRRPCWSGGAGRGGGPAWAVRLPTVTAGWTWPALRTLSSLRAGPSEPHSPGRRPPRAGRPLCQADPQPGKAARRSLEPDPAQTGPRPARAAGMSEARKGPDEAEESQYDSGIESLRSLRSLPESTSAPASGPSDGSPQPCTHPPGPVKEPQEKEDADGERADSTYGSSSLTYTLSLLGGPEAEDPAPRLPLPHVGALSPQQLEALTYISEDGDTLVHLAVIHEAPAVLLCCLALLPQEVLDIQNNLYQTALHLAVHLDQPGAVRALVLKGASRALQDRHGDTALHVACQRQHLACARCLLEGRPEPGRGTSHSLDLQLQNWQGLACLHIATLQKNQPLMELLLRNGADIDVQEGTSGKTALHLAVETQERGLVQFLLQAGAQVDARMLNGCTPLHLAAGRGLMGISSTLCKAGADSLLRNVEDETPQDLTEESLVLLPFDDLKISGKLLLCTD
UniProt Q9Y2I1: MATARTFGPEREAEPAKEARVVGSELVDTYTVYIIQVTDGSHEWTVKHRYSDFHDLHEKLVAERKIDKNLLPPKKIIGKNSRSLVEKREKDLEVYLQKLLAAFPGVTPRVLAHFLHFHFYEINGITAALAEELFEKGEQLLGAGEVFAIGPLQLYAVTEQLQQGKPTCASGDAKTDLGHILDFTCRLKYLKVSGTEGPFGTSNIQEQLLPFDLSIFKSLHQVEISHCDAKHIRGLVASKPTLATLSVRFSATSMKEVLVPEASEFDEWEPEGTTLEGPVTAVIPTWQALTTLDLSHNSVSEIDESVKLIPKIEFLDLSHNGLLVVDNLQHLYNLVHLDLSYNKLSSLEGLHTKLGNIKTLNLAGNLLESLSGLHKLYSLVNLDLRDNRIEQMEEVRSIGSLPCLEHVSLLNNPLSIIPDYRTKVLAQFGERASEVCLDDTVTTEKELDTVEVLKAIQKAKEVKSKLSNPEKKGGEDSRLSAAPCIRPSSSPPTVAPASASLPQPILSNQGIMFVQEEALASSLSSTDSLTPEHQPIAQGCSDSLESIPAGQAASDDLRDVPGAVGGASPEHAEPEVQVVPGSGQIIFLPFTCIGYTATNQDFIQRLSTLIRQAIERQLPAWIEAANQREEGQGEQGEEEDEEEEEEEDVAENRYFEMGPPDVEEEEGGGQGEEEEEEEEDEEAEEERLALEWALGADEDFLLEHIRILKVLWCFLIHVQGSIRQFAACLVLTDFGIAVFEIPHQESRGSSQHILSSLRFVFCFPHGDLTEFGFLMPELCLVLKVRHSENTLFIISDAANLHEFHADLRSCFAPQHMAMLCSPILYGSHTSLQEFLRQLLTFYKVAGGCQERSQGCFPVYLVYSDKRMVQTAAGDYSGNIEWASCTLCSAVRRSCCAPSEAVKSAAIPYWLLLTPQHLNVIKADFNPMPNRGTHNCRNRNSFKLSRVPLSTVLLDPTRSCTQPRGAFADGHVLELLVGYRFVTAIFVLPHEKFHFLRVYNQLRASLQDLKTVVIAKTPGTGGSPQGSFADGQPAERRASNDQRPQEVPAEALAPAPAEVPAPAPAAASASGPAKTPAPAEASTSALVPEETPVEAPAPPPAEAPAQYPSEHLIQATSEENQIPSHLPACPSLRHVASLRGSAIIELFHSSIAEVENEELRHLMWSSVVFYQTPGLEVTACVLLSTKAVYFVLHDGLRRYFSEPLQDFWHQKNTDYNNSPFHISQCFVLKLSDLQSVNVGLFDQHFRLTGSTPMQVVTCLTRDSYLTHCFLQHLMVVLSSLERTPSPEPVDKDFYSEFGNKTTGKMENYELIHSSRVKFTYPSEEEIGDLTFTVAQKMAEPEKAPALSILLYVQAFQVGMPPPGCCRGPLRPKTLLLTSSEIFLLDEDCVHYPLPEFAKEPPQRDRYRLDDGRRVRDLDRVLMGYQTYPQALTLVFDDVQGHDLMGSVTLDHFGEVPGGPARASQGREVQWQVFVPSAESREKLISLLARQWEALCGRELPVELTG
UniProt Q8IXH7, whole entry, looked up: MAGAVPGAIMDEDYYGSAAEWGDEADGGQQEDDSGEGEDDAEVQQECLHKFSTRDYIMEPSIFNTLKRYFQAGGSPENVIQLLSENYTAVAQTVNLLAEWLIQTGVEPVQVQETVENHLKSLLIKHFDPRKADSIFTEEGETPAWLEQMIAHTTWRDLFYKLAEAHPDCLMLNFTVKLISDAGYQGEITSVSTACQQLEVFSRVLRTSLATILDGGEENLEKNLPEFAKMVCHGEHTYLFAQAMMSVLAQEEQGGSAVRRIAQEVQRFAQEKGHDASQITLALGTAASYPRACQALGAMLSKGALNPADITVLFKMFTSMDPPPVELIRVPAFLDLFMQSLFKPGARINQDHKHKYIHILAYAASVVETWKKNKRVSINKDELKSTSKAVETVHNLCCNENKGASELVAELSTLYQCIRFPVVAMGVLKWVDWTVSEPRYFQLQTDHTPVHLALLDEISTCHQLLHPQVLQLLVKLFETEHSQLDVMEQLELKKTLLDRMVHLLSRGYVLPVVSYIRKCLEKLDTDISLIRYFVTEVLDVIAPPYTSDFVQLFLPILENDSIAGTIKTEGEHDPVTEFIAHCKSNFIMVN
UniProt Q12968: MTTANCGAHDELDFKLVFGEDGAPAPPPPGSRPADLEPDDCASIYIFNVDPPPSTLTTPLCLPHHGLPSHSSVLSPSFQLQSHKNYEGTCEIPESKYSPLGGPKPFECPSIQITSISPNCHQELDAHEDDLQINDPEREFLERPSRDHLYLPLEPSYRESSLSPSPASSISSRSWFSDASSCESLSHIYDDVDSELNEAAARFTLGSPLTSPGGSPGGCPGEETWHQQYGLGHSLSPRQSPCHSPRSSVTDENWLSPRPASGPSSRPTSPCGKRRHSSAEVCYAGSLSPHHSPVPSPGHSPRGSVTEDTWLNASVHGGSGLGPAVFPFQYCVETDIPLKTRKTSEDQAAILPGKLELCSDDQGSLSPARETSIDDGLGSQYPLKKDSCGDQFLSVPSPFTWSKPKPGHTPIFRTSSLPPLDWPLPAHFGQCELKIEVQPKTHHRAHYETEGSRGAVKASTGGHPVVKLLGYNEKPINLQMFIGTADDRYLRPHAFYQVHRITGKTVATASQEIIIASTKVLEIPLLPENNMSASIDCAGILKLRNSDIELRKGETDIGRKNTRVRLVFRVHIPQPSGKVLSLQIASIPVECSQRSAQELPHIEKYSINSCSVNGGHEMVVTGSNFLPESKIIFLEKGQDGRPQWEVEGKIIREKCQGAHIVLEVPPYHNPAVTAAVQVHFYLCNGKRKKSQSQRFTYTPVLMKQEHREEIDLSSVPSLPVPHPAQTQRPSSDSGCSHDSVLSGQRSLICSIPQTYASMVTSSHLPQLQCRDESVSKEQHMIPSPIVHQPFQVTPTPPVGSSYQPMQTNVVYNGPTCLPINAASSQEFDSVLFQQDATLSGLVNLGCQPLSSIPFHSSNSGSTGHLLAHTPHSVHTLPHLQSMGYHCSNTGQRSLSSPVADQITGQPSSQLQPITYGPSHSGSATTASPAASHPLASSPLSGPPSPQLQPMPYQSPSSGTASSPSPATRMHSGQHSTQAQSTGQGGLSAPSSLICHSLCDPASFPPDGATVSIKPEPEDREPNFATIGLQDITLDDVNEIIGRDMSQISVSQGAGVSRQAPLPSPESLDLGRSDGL

Compound: Cc1cc(ccc1-c1ccccc1)C(=O)N1CCCN(CC1)C(=O)CCl [compound 10]
Test: probe-labelled cysteine peptide fold change vs DMSO (competition) (log2 fold change); higher = less target engagement (more negative = stronger competition)
Conditions: THP-1, incubation time: 4 h
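Further: competitive profiling in live THP-1 cells: cysteine peptides tagged with an iodoacetamide desthiobiotin (IA-DTB) probe, intensity after compound treatment relative to DMSO-treated cells.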

Row | Target | probe-labelled cysteine peptide fold change (10 µM) | probe-labelled cysteine peptide fold change (50 µM)
1 | NDRG2_Q9UN36_255_CPVMLVVGDQAPHEDAVVECNSK (UniProt Q9UN36) | 0.151 | -0.291
2 | NDUFS5_O43920_33_CHAFEK (UniProt O43920) | -0.203 | 0.0729
3 | NEK6_Q9HC98_157_YFVQLCSAVEHMHSR (UniProt Q9HC98) | 0.0413 | -0.112
4 | NIN_Q8N4C6_1261_ENDCLQEELR (UniProt Q8N4C6) | -0.138 | 0.178
5 | NCOR2_Q9Y618_866_SECTEEAEEGPAK (UniProt Q9Y618) | 0.186 | -0.0701
6 | NFS1_Q9Y697_353_HHYPGCINLSFAYVEGESLLMALK (UniProt Q9Y697) | 0.466 | 0.42
7 | NIT1_Q86X76_120_ECGLWLSLGGFHER (UniProt Q86X76) | 0.13 | 0.14
8 | NCKAP1L_P55160_612_QTSNCVLEICAEQR (UniProt P55160) | 0.115 | -0.354
9 | NDUFA10_O95299_112_HFPEAGIHYPDSTTGDGKPLATDYNGNCSLEK (UniProt O95299) | -0.194 | -0.224
10 | NDUFA8_P51970_36_AAAHHYGAQCDK (UniProt P51970) | -0.0974 | 0.565
11 | NDUFB11_Q9NX14_141_EANGLPIMESNCFDPSK (UniProt Q9NX14) | -0.269 | -0.0512
12 | NIT2_Q9NQR4_146_TLSPGDSFSTFDTPYCR (UniProt Q9NQR4) | 0.0904 | 0.573
13 | NIPSNAP2_O75323_85_LQFHNVKPECLEAYNK (UniProt O75323) | -0.204 | -0.0373
14 | NGLY1_Q96IV0_283+286_EVEDHYCDACQFSNRFPR (UniProt Q96IV0) | -0.135 | -0.659
15 | NET1_Q7Z628_267_GYCSNQLAAK (UniProt Q7Z628) | 0.0796 | -0.253
16 | NEIL3_Q8TAT5_259_RPNCGQCHCR (UniProt Q8TAT5) | 0.113 | -1.02
17 | NIT2_Q9NQR4_44_IVSLPECFNSPYGAK (UniProt Q9NQR4) | -0.0068 | 0.0915
18 | NDUFA9_Q16795_86_CDKYDIMHLRPMGDLGQLLFLEWDAR (UniProt Q16795) | -0.11 | -0.494
19 | NDUFV1_P49821_238+255_LKPPFPADVGVFGCPTTVANVETVAVSPTICR (UniProt P49821) | -0.0101 | 0.135
20 | NELFB_Q8WX92_141_ACAVEVK (UniProt Q8WX92) | -0.158 | -0.000625
21 | NDUFA5_Q16718_17_TTGLVGLAVCNTPHER (UniProt Q16718) | -0.174 | -0.188

Row | Target | probe-labelled cysteine peptide fold change (10 µM) | probe-labelled cysteine peptide fold change (50 µM)
22 | NDUFV1_P49821_187_NACGSGYDFDVFVVR (UniProt P49821) | 0.074 | 0.242
23 | NEDD9_Q14511_46_KGDILTVIEQNTGGLEGWWLCSLHGR (UniProt Q14511) | 0.116 | -0.21
24 | NFXL1_Q6ZNB6_335_CENPCHAGSCQPCPR (UniProt Q6ZNB6) | 0.133 | -0.055
25 | NKIRAS2_Q9NYR9_10_VVVCGQASVGK (UniProt Q9NYR9) | -0.00923 | -0.0492
26 | NDUFA7_O95182_55_LSNNYYCTR (UniProt O95182) | -0.188 | 0.023
27 | NFKB2_Q00653_432_TPQCEPQAPEMLQR (UniProt Q00653) | -0.141 | -0.498
28 | NEK9_Q8TD19_569_LGLNQCMSGIINHEAYHEVPYTTSFTLAK (UniProt Q8TD19) | 0.015 | -0.126
29 | NFS1_Q9Y697_308_SGTVPTPLVVGLGAACEVAQQEMEYDHKR (UniProt Q9Y697) | -0.235 | 0.165
30 | NFX1_Q12986_730_CEEPCHR (UniProt Q12986) | 0.0939 | 0.0985
31 | NFIC_P08651_157+163_AAQCGHPVLCVQPHHIGVAVK (UniProt P08651) | -0.172 | -0.161
32 | NCOR1_O75376_474_SVPDCVLYYYLTK (UniProt O75376) | 0.23 | 0.343
33 | NFX1_Q12986_444_NEIPHSCGEVCR (UniProt Q12986) | 0.165 | 0.0254
34 | NDUFB10_O96000_119_EGQNYQQNCIK (UniProt O96000) | -0.63 | 0.0913
35 | NIN_Q8N4C6_1502_AMMHDLQITCSEMQQK (UniProt Q8N4C6) | -0.00943 | 0.0291
36 | NFKBIB_Q15653_135_GHTALHLACR (UniProt Q15653) | 0.255 | 0.187
37 | NDUFS1_P28331_564_DCFIIYQGHHGDVGAPIADVILPGAAYTEK (UniProt P28331) | 0.0878 | -0.0788
38 | NFKBIE_O00221_342_QHLACAR (UniProt O00221) | 0.164 | -0.193
39 | NFX1_Q12986_479_TCECGR (UniProt Q12986) | 0.0222 | 0.0969
40 | NGLY1_Q96IV0_484_KETLFIPCENEK (UniProt Q96IV0) | -0.0225 | 0.0731
41 | NFIC_P08651_88_DIRPECR (UniProt P08651) | 0.0779 | 0.279
42 | NDUFA8_P51970_88_HCAEPFTEYWTCIDYTGQQLFR (UniProt P51970) | 0.342 | 0.0824

Row | Target | probe-labelled cysteine peptide fold change (10 µM) | probe-labelled cysteine peptide fold change (50 µM)
43 | NEK9_Q8TD19_375_QVCAGNTHFAVVTVEK (UniProt Q8TD19) | 0.0417 | -0.161
44 | NFX1_Q12986_852_GECLVDEPCK (UniProt Q12986) | -0.0782 | -0.417
45 | NDUFA8_P51970_36_AAAHHYGAQCDKPNK (UniProt P51970) | -0.154 | -0.0103
46 | NIT1_Q86X76_251+259_AIETQCYVVAAAQCGR (UniProt Q86X76) | 0.372 | 0.793
47 | NCL_P19338_543_EALNSCNK (UniProt P19338) | 0.0894 | 0.244
48 | NISCH_Q9Y2I1_436_ASEVCLDDTVTTEK (UniProt Q9Y2I1) | 0.05 | -0.322
49 | NDRG3_Q9UGV2_166_FALNHPELVEGLVLINVDPCAK (UniProt Q9UGV2) | -0.162 | 0.0214
50 | NELFCD_Q8IXH7_417_GASELVAELSTLYQCIR (UniProt Q8IXH7) | 0.211 | 0.297
51 | NCOA7_Q8NI08_762_STCSYYEDEDEEVLPVLRPHSALLENMHIEQLAR (UniProt Q8NI08) | 0.0816 | 0.0195
52 | NCLN_Q969V3_84_RCVLMR (UniProt Q969V3) | -0.141 | 0.108
53 | NEK7_Q8TDX7_53_AACLLDGVPVALKK (UniProt Q8TDX7) | -0.0653 | -0.266
54 | NCOR2_Q9Y618_466_TVAECVLYYYLTK (UniProt Q9Y618) | 0.0485 | 0.294
55 | NFATC3_Q12968_537_VLEIPLLPENNMSASIDCAGILK (UniProt Q12968) | -0.0447 | -0.0788
56 | NIT1_Q86X76_145_IYNCHVLLNSK (UniProt Q86X76) | 0.128 | 0.0697
57 | NFATC1_O95644_587_TLSLQVASNPIECSQR (UniProt O95644) | 0.242 | -0.122
58 | NDUFS1_P28331_554_VLFLLGADGGCITR (UniProt P28331) | 0.0579 | 0.123
59 | NGLY1_Q96IV0_283_EVEDHYCDACQFSNRFPR (UniProt Q96IV0) | 0.102 | 0.228
60 | NFX1_Q12986_295_STCDSENLAVINK (UniProt Q12986) | 0.0638 | -0.0574
61 | NIPSNAP2_O75323_93_ICQEVLPK (UniProt O75323) | -0.223 | -0.156
62 | NDUFS1_P28331_226_MFMSELSGNIIDICPVGALTSK (UniProt P28331) | -0.183 | -0.0388
63 | NIF3L1_Q9GZT8_148_GLGACTSRPIHPSK (UniProt Q9GZT8) | -0.146 | -0.118

4 entries picked at random from those above, as already listed:
Row | Target | probe-labelled cysteine peptide fold change (10 µM) | probe-labelled cysteine peptide fold change (50 µM)
47 | NCL_P19338_543_EALNSCNK (UniProt P19338) | 0.0894 | 0.244
54 | NCOR2_Q9Y618_466_TVAECVLYYYLTK (UniProt Q9Y618) | 0.0485 | 0.294
60 | NFX1_Q12986_295_STCDSENLAVINK (UniProt Q12986) | 0.0638 | -0.0574
46 | NIT1_Q86X76_251+259_AIETQCYVVAAAQCGR (UniProt Q86X76) | 0.372 | 0.793

(next part)

Row | Target | probe-labelled cysteine peptide fold change (10 µM) | probe-labelled cysteine peptide fold change (50 µM)
64 | NFATC3_Q12968_358_LELCSDDQGSLSPAR (UniProt Q12968) | -0.212 | 0.0917
65 | NKRF_O15226_453_DLVVYENSSNPVCTLNDTAQFNR (UniProt O15226) | 0.234 | -0.0806
66 | NIT2_Q9NQR4_76_ECSIYLIGGSIPEEDAGK (UniProt Q9NQR4) | 0.231 | 0.423
67 | NIFK_Q9BYG3_118_LLECHFMPPEK (UniProt Q9BYG3) | -0.0155 | -0.0823
68 | NDRG3_Q9UGV2_359_SVTSNQSDGTQESCESPDVLDR (UniProt Q9UGV2) | -0.0455 | -0.0875
69 | NEK1_Q96PY6_276_FLSPQLIAEEFCLK (UniProt Q96PY6) | -0.0505 | -0.246
70 | NKAP_Q8N5F7_47_SHSCSR (UniProt Q8N5F7) | -0.0637 | -0.481
71 | NEK6_Q9HC98_258_MNLFSLCQK (UniProt Q9HC98) | 0.127 | -0.571
72 | NGLY1_Q96IV0_484_ETLFIPCENEK (UniProt Q96IV0) | -0.0711 | -0.0217
73 | NCOA5_Q9HCD5_266_SCTVNIMFGTPQEHR (UniProt Q9HCD5) | 0.243 | 0.209
74 | NF1_P21359_1486_FFLDIASDCPTSDAVNHSLSFISDGNVLALHR (UniProt P21359) | 0.0727 | 0.051
75 | NHP2_Q9NX24_92_GIMVLAGDTLPIEVYCHLPVMCEDR (UniProt Q9NX24) | 0.271 | 0.265
76 | NELFCD_Q8IXH7_582_TEGEHDPVTEFIAHCK (UniProt Q8IXH7) | 0.0343 | -0.208
77 | NFKBIE_O00221_345_CLLEGRPEPGR (UniProt O00221) | 0.0527 | -0.143
78 | NIT1_Q86X76_285+292_CSEGPGLCLAR (UniProt Q86X76) | 0.0591 | -0.166
79 | NHEJ1_Q9H9Q4_97_DAAHPSEATFSCDCVADALILR (UniProt Q9H9Q4) | -0.172 | -0.319
80 | NDUFA5_Q16718_17_KTTGLVGLAVCNTPHER (UniProt Q16718) | -0.246 | -0.424
81 | NF1_P21359_904_LLSLMVCNHEK (UniProt P21359) | -0.111 | -0.447
82 | NIT2_Q9NQR4_97_LYNTCAVFGPDGTLLAK (UniProt Q9NQR4) | 0.215 | 0.125
83 | NISCH_Q9Y2I1_403_SIGSLPCLEHVSLLNNPLSIIPDYR (UniProt Q9Y2I1) | 0.0347 | 0.365
84 | NGLY1_Q96IV0_74_GAVECLFEMGFEEGETHLIFPK (UniProt Q96IV0) | 0.166 | 0.0369
